From publication PMC4947180

Chains of the proteins cited; added tags and fusions are not shown. Lines headed by an entry give the natural chain unless they say otherwise; changes in a name come on top.
UniProt P58854: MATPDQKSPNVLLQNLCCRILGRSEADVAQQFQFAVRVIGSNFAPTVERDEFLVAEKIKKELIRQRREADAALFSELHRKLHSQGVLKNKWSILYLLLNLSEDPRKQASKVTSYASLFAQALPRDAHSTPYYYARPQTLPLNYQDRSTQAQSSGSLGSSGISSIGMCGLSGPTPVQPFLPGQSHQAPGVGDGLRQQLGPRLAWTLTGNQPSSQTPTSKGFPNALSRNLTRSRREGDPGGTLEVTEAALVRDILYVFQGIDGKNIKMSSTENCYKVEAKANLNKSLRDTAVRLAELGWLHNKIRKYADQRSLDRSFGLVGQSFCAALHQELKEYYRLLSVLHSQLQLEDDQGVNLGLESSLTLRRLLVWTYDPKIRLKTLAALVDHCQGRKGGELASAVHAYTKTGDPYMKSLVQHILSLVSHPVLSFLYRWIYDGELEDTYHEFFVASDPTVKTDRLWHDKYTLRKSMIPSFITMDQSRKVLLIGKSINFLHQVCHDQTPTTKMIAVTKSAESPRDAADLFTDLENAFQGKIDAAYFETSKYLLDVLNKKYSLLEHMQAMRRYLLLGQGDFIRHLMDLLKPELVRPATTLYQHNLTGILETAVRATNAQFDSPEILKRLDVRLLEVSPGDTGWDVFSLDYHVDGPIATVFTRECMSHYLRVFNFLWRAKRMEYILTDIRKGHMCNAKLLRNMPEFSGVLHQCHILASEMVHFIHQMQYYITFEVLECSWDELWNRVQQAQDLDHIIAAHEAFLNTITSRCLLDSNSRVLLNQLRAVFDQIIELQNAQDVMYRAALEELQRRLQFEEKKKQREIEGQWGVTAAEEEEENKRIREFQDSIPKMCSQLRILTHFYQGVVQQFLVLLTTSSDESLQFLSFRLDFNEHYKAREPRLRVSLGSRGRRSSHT
UniProt Q6NV99: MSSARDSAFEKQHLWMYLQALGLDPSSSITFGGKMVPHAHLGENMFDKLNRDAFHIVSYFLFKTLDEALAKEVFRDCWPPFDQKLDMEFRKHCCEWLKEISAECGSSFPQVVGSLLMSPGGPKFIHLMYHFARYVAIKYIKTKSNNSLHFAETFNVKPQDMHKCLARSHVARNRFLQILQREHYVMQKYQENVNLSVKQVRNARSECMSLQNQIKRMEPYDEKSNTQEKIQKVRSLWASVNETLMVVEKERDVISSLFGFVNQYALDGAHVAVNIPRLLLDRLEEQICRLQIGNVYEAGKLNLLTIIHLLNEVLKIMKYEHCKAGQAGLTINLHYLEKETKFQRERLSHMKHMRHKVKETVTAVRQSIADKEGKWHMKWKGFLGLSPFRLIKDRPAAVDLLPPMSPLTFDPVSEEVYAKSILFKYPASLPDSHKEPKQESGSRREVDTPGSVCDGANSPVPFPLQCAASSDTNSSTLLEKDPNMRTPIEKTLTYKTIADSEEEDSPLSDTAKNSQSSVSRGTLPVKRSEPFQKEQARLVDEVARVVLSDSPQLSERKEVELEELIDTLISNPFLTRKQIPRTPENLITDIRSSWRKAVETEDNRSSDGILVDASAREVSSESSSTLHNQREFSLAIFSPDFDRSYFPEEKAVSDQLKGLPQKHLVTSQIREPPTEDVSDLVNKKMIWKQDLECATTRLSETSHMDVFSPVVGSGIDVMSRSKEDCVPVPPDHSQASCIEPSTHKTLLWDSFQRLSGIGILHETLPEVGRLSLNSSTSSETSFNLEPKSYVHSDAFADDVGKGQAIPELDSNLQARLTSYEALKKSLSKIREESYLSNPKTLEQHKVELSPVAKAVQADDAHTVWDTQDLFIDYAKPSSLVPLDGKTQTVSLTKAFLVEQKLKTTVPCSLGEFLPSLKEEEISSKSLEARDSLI

Target: γTuRC subunit GCP3 (mouse (endogenous in hippocampal cultures)) (UniProt P58854)
Experiment: co-IP; 3 DIV or 10 DIV hippocampal cultures lysed (50 mM Tris pH 7.4, 150 mM NaCl, 1 mM MgCl2, 1 mM EGTA, 10% glycerol, 1% Triton X-100); immunoprecipitation with anti-GCP3 antibody overnight or control IgG, Protein G-Sepharose; immunoblot

## augmin subunit HAUS6 (from UniProt Q6NV99)
  binding: binds

These are yes or no findings as the source states them, for the method shown. In cells and extracts the contact can be indirect. A result given as binding can be weak or reduced; the word gives no strength.
